The list shows only some results of the screen, not a fair sample: it gathers tests that were run many times, whatever their T/C, doses with no T/C, and many T/C values between a quarter and a half above the control. Further doses and runs are listed elsewhere. T/C gives the treated animals as a percentage of the vehicle group. Some entries give survivors of the animals treated and no T/C: the source holds a T/C of zero for them, seemingly a mark for toxic or unscored doses. Some survivor counts are full or nearly so, which does not show that the dose was tolerated: the source hardly ever lists a survival T/C far under the control, and the zero likely stands for such cases as well. Counts of survivors are from the toxicity check (mostly the fifth day) where no day follows; animals may have died later. Schedules are NCI's codes, taken here to give the interval after Q, in days (D) or hours (H), and the number of doses after X. Some doses were run more than once; their values stand side by side, smallest first. Some schedule codes hold Z or #, which are not explained here. Where survival is the endpoint, this PubChem deposit counts one and a half times the control or more as active, and values a quarter to a half above the control carry no call in these data; other NCI protocols may use other cut-offs. Some T/C values carry the count of animals alive at the toxicity check (mostly the fifth day); where none is given, no animal had died by that day.
Tested on: L1210 leukemia ip in BDF1 mice, survival T/C
Assay: NCI In Vivo Anticancer Drug Screen. Data for tumor model L1210 Leukemia (intraperitoneal) in B6D2F1 (BDF1) mice
Conditions: T/C endpoint: mean survival time, higher T/C = longer survival
[1] = dose: 200.0 mg/kg/injection, schedule: Q01DX001 (ip), vehicle: saline
[2] = dose: 400.0 mg/kg/injection, schedule: Q01DX001 (ip), vehicle: saline
[3] = dose: 15.0 mg/kg/injection, schedule: Q04DX003 (ip), vehicle: saline with Tween-80
[4] = dose: 100.0 mg/kg/injection, schedule: Q04DX003 (ip), vehicle: Klucel (hydroxypropylcellulose) (HPC)
[5] = dose: 200.0 mg/kg/injection, schedule: Q04DX003 (ip), vehicle: Klucel (hydroxypropylcellulose) (HPC)
[6] = dose: 400.0 mg/kg/injection, schedule: Q04DX003 (ip), vehicle: Klucel (hydroxypropylcellulose) (HPC)
[7] = dose: 100.0 mg/kg/injection, schedule: Q04DX003 (ip), vehicle: saline with Tween-80
[8] = dose: 200.0 mg/kg/injection, schedule: Q04DX003 (ip), vehicle: saline with Tween-80
[9] = dose: 400.0 mg/kg/injection, schedule: Q04DX003 (ip), vehicle: saline with Tween-80
[10] = dose: 400.0 mg/kg/injection, schedule: Q01DX009 (ip), vehicle: water
[11] = dose: 3.0 mg/kg/injection, schedule: Q01DX009 (ip), vehicle: carboxymethylcellulose (CMC)

## NNC(=O)CCCc1ccccc1
dose: 100.0 mg/kg/injection, schedule: Q01DX009 (ip), vehicle: saline
  survivor count: 6 of 6
[1]
  survivor count: 3 of 6
[2]
  survivor count: 0 of 6

## CC([NH-])C[NH-].[Cl][Pt+2][Cl] (stereo unspecified)
dose: 1.25 mg/kg/injection, schedule: Q01DX009 (ip), vehicle: saline
  T/C: 133 and 136 % of control
dose: 2.5 mg/kg/injection, schedule: Q01DX009 (ip), vehicle: saline
  T/C: 139, 146, 148, 162 % of control [5 of 6 alive]
dose: 5.0 mg/kg/injection, schedule: Q01DX009 (ip), vehicle: saline
  T/C: 148 % of control
dose: 6.6 mg/kg/injection, schedule: Q04DX003 (ip), vehicle: saline with Tween-80
  T/C: 127 and 131 % of control
dose: 10.0 mg/kg/injection, schedule: Q01DX009 (ip), vehicle: saline
  survivor count: 3 of 6 and 5 of 6
dose: 10.0 mg/kg/injection, schedule: Q04DX003 (ip), vehicle: saline with Tween-80
  T/C: 129 and 140 % of control
[3]
  T/C: 138 % of control
  survivor count: 4 of 6
dose: 25.0 mg/kg/injection, schedule: Q04DX002 (ip), vehicle: Klucel (hydroxypropylcellulose) (HPC)
  survivor count: 0 of 3
dose: 50.0 mg/kg/injection, schedule: Q04DX002 (ip), vehicle: Klucel (hydroxypropylcellulose) (HPC)
  survivor count: 0 of 3
dose: 100.0 mg/kg/injection, schedule: Q04DX002 (ip), vehicle: Klucel (hydroxypropylcellulose) (HPC)
  survivor count: 0 of 3
dose: 200.0 mg/kg/injection, schedule: Q04DX002 (ip), vehicle: Klucel (hydroxypropylcellulose) (HPC)
  survivor count: 0 of 3
dose: 400.0 mg/kg/injection, schedule: Q04DX002 (ip), vehicle: Klucel (hydroxypropylcellulose) (HPC)
  survivor count: 0 of 3

## CC(C)(C)C1COP(=O)(C(C)(C)C)OC1 (stereo unspecified)
dose: 50.0 mg/kg/injection, schedule: Q04DX003 (ip), vehicle: Klucel (hydroxypropylcellulose) (HPC)
  survivor count: 4 of 6
[4]
  survivor count: 0 of 6
[5]
  survivor count: 0 of 6
[6]
  survivor count: 0 of 6

## CC(C(=O)c1ccccc1)C(N[N+](C)(C)C)c1ccccc1 (stereo unspecified)
[7]
  survivor count: 0 of 3
[8]
  survivor count: 0 of 3
[9]
  survivor count: 0 of 3

## O=C(O)c1ccncc1C(=O)c1csc2ccccc12
dose: 200.0 mg/kg/injection, schedule: Q04DX003 (ip), vehicle: acetone
  survivor count: 1 of 6

## CC(=O)[O][Hg][c]1cc(-c2ccc(N=Nc3c(S(=O)(=O)O)cc4cccc(N)c4c3O)cc2)ccc1N=Nc1c(S(=O)(=O)O)cc2cccc(N)c2c1O
[7]
  survivor count: 0 of 6
[8]
  survivor count: 0 of 6
[9]
  survivor count: 0 of 6

## Nc1ncnc(N)c1NC(=O)C1CCCCC1
dose: 100.0 mg/kg/injection, schedule: Q01DX001 (ip), vehicle: Klucel (hydroxypropylcellulose) (HPC)
  survivor count: 3 of 6

## CCCCN(CCCC)CC(O)c1ccnc2cc3c(cc12)OCO3 (stereo unspecified)
[1]
  survivor count: 3 of 6
[2]
  survivor count: 1 of 6

## CCOP(=O)(OCC)O/N=C(/c1ccccc1)C(C)C
dose: 75.0 mg/kg/injection, schedule: Q01DX001 (ip), vehicle: saline
  survivor count: 0 of 6
dose: 80.0 mg/kg/injection, schedule: Q01DX001 (ip), vehicle: saline
  survivor count: 0 of 6
dose: 150.0 mg/kg/injection, schedule: Q01DX001 (ip), vehicle: saline
  survivor count: 0 of 6
dose: 300.0 mg/kg/injection, schedule: Q01DX001 (ip), vehicle: saline
  survivor count: 0 of 6

## CNC(=O)NC1CCCCC1
dose: 400.0 mg/kg/injection, schedule: Q01DX009 (ip), vehicle: carboxymethylcellulose (CMC)
  survivor count: 3 of 3

## COC(=O)C(C)(N)Cc1ccc(O)c(C)c1 (stereo unspecified)
dose: 400.0 mg/kg/injection, schedule: Q01DX009 (ip), vehicle: Klucel (hydroxypropylcellulose) (HPC)
  survivor count: 3 of 6

## CCN(CC)C(=S)[S][Sn]([Cl])([c]1ccccc1)[c]1ccccc1
dose: 100.0 mg/kg/injection, schedule: Q01DX001 (ip), vehicle: other
  survivor count: 2 of 6
dose: 200.0 mg/kg/injection, schedule: Q01DX001 (ip), vehicle: other
  survivor count: 0 of 6
dose: 400.0 mg/kg/injection, schedule: Q01DX001 (ip), vehicle: other
  survivor count: 0 of 6

## C[N+](C)(C)CC(=O)[O-]
dose: 400.0 mg/kg/injection, schedule: Q01DX009 (ip), vehicle: saline
  survivor count: 3 of 6
dose: 400.0 mg/kg/injection, schedule: Q04DX003 (ip), vehicle: saline
  survivor count: 4 of 6

## CCCCCCN1C(C)C1C(C)C (stereo unspecified)
[4]
  survivor count: 3 of 6
[5]
  survivor count: 0 of 6
[6]
  survivor count: 1 of 6

## CC1(C)CC(NC(=O)NCCCl)CC(C)(C)N1
dose: 50.0 mg/kg/injection, schedule: Q01DX009 (ip), vehicle: saline
  survivor count: 4 of 6

## N#CCC(N)=S
dose: 100.0 mg/kg/injection, schedule: Q04DX002 (ip), vehicle: gum acacia
  survivor count: 0 of 3

## [N-]=[N+]=CC(=O)NCC(=O)NO
dose: 130.0 mg/kg/injection, schedule: Q01DX008 (ip), vehicle: water
  T/C: 135 % of control
dose: 180.0 mg/kg/injection, schedule: Q01DX009 (ip), vehicle: water
  T/C: 136 % of control
dose: 200.0 mg/kg/injection, schedule: Q01DX008 (ip), vehicle: water
  T/C: 133 % of control
dose: 300.0 mg/kg/injection, schedule: Q01DX008 (ip), vehicle: water
  T/C: 139 % of control
[10]
  T/C: 146 % of control
dose: 450.0 mg/kg/injection, schedule: Q01DX009 (ip), vehicle: other
  T/C: 130 % of control [5 of 6 alive]
dose: 600.0 mg/kg/injection, schedule: Q01DX001 (ip), vehicle: water
  T/C: 128 % of control
dose: 600.0 mg/kg/injection, schedule: Q01DX009 (ip), vehicle: water
  survivor count: 5 of 6
dose: 800.0 mg/kg/injection, schedule: Q01DX001 (ip), vehicle: water
  T/C: 126 % of control
dose: 1200.0 mg/kg/injection, schedule: Q01DX001 (ip), vehicle: water
  T/C: 142 % of control
dose: 2000.0 mg/kg/injection, schedule: Q01DX001 (ip), vehicle: water
  survivor count: 3 of 6

## NC(N)=Nc1ccc(C(=O)Oc2ccc(OC(=O)c3cccc(N=C(N)N)c3)cc2)cc1
[10]
  survivor count: 2 of 6

## O=C(CN1CC1)Nc1ccc(NC(=O)CN2CC2)cc1
[11]
  T/C: 127 % of control [5 of 6 alive]
  survivor count: 2 of 6
dose: 6.0 mg/kg/injection, schedule: Q01DX009 (ip), vehicle: carboxymethylcellulose (CMC)
  T/C: 134 and 136 % of control [5 of 6 alive]
dose: 7.3 mg/kg/injection, schedule: Q01DX009 (ip), vehicle: carboxymethylcellulose (CMC)
  T/C: 137 % of control
dose: 11.0 mg/kg/injection, schedule: Q01DX001 (ip), vehicle: carboxymethylcellulose (CMC)
  T/C: 127 % of control
dose: 11.1 mg/kg/injection, schedule: Q01DX001 (ip), vehicle: carboxymethylcellulose (CMC)
  T/C: 128 % of control
dose: 16.6 mg/kg/injection, schedule: Q01DX001 (ip), vehicle: carboxymethylcellulose (CMC), evaluated on day 30
  T/C: 133 % of control
dose: 16.6 mg/kg/injection, schedule: Q01DX001 (ip), vehicle: carboxymethylcellulose (CMC), run until all animals had died
  T/C: 133 % of control
dose: 25.0 mg/kg/injection, schedule: Q01DX001 (ip), vehicle: carboxymethylcellulose (CMC)
  T/C: 144 % of control
dose: 25.0 mg/kg/injection, schedule: Q01DX009 (ip), vehicle: carboxymethylcellulose (CMC)
  survivor count: 6 of 6
dose: 37.5 mg/kg/injection, schedule: Q01DX009 (ip), vehicle: carboxymethylcellulose (CMC)
  survivor count: 0 of 6
dose: 100.0 mg/kg/injection, schedule: Q01DX001 (ip), vehicle: carboxymethylcellulose (CMC)
  survivor count: 0 of 4

## Nc1cc(C(=O)Nc2cccc(C3=NCCN3)c2)ccc1C(=O)Nc1cccc(C2=NCCN2)c1
dose: 15.0 mg/kg/injection, schedule: Q01DX Z (ip), vehicle: saline
  survivor count: 0 of 6

Source: PubChem BioAssay AID248 (DTP/NCI, 2004)
